Measurements taken from PMC12540712.

Protein sequences, listed by entry. Tags and fused reporters are not part of them. Lines headed by an entry give the natural chain unless they say otherwise; changes in a name come on top.
UniProt Q16531: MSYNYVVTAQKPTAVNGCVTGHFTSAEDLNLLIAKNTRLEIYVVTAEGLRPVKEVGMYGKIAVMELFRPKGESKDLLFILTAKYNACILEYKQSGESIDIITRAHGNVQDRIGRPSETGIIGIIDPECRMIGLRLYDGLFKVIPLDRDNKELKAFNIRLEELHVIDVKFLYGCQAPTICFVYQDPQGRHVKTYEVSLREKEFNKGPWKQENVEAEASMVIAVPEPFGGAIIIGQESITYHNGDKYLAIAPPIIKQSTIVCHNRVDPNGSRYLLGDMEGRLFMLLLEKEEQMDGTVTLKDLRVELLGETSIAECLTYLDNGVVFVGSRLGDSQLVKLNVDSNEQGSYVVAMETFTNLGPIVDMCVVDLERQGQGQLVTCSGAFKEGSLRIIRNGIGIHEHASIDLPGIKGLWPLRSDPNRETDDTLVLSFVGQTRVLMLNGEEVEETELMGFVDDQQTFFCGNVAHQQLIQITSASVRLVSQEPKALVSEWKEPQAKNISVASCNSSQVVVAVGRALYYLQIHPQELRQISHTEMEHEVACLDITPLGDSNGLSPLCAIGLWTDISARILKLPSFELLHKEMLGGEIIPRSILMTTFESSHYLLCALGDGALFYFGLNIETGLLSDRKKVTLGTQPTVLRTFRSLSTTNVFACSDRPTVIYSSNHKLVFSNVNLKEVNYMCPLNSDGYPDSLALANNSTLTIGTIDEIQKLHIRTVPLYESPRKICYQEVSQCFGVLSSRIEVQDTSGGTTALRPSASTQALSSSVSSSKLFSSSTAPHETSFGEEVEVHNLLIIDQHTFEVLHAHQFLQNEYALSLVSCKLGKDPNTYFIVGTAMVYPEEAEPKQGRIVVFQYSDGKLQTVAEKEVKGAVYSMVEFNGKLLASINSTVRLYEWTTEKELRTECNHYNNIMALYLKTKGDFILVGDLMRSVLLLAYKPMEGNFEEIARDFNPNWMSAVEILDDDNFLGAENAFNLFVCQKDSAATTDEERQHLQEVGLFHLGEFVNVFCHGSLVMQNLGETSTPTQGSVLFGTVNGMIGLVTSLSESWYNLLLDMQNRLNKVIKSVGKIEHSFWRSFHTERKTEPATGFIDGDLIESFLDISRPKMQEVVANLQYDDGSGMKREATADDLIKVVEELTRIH
UniProt P28340: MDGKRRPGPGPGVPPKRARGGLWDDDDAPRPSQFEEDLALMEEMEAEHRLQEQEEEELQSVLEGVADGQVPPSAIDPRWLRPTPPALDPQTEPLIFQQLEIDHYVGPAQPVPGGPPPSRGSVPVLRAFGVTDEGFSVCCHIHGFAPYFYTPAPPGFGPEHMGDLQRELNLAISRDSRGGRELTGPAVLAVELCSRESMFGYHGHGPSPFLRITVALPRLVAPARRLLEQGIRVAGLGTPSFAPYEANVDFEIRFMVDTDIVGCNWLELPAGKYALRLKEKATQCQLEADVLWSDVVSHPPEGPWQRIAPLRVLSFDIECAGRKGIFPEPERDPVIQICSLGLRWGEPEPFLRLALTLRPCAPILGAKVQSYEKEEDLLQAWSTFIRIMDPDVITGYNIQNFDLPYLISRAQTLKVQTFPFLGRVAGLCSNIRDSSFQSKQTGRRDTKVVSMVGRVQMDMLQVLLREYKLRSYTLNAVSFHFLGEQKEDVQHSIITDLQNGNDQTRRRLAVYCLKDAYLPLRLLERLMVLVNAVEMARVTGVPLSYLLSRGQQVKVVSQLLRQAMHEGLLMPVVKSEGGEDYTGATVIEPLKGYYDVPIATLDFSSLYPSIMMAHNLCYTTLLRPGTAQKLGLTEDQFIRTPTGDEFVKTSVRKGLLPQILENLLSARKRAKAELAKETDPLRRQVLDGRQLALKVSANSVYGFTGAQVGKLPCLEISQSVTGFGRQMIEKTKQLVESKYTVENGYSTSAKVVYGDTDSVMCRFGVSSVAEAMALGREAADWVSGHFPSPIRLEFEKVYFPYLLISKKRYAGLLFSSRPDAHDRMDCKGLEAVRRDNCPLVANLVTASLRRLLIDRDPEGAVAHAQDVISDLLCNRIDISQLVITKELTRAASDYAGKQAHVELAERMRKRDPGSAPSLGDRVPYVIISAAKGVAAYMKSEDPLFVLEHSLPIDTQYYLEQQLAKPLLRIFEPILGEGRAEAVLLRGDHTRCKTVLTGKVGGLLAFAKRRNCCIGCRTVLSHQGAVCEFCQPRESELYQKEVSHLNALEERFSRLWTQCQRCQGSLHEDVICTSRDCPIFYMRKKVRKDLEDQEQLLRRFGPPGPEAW

Biological target: T1, FLAG-And-1, full-length And-1 (FL, 1–1129) (human) (UniProt O75717)
T1 sequence: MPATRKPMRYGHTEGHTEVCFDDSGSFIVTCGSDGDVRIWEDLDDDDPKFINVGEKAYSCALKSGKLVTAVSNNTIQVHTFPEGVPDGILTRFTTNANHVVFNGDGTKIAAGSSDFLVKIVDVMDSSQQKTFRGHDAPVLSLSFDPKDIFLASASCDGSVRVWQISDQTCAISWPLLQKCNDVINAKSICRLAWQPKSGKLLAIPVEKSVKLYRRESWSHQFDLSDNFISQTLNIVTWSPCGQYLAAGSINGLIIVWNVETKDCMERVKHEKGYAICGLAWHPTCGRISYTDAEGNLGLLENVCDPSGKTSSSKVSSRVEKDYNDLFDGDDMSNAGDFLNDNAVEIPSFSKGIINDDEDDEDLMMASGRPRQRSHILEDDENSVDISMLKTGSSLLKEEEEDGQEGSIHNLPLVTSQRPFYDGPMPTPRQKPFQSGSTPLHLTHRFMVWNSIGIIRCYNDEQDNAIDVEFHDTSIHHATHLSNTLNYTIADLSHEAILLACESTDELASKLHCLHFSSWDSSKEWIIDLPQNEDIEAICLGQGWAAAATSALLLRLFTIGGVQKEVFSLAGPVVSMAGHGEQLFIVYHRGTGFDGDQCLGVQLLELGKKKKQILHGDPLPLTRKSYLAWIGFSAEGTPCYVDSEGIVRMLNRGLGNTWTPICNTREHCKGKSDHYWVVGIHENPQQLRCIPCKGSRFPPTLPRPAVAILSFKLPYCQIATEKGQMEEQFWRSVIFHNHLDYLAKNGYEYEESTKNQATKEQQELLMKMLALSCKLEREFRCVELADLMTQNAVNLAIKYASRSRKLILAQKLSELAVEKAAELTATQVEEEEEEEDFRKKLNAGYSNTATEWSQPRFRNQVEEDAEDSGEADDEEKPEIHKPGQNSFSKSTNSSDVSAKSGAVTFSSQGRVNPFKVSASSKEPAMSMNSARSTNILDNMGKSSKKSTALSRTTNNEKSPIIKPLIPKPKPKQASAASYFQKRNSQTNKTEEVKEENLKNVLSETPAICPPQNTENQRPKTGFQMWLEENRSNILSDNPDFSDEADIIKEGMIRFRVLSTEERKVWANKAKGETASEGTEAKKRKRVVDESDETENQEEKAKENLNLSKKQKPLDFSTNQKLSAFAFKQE
Assay: affinity purification with mass spectrometry; FLAG-And-1 pulled down with Flag-beads from lysates of transfected HEK293T cells, with or without UVB 100 mJ/cm2 (harvested 1 h after); ethidium bromide and DNase I in the lysis buffer

| binding | Substance |
| --- | --- |
| binds | DDB1 (from UniProt Q16531 1-1140) |
| binds | catalytic subunit of DNA polymerase δ (p125) (from UniProt P28340 1-1107) |

These are yes or no findings as the source states them, for the method shown. Binding seen in cells or lysates may run through a third protein. A yes stands for co-enrichment or nearness to the bait. Other partners may have been found. Sequences can lack the tags named with a protein.
